The values that follow come from PMC7924746.

In the assay the target is Flag-HA-tagged AGO1 (human) (UniProt Q9UL18). Description: co-IP; anti-HA antibody on Protein-G Sepharose, FH-AGO1 or FH-EYFP precipitated from lysates (RIPA buffer: 50 mM Tris-HCl, 150 mM NaCl, 1% Triton X-100, 1 mM EDTA, pH 7.4) of unmodified or RanBP2-dE3 U2OS cells treated with 10 uM MG132 for 7 h; 2-3 h at 4 C; immunoblot for RanBP2. On the technique in general: In western blotting, separated proteins are transferred to a membrane and probed.

Results are given in words; binding and its absence hold for the method and conditions named. In cells and extracts the contact can be indirect. Some results given as binding are weak or reduced against the parent protein; the word gives no strength.

“Ran-binding protein 2 (RanBP2) (from UniProt P49792 1-3224)”: the binding entry is on record as “binds”.
